{"source": "PubChem BioAssay AID1224830 (NIAID, 2016)", "assay": "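Regulators of TLR4 signalling towards TNF-alpha in macrophage-like cells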 (primary screen)", "cell system": "human THP-1 monocytic leukaemia cells, TNF dual-luciferase reporter clone, PMA-differentiated to macrophage-like cells", "reagent": "siRNA pool against human genes, 50 nM", "timing": "LPS for 4 h, given about 3 days after siRNA transfection", "treatment": "bacterial LPS (TLR4 ligand), 10 ng/ml", "read-out": "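TNF firefly reporter luminescence divided by renilla, normalised to the plate median, then turned into a robust z-score for each replicate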", "direction": "TNF reporter robust z-score: higher = stronger TNF reporter response to LPS", "call rule": "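Each well counts as active if its z-score is over 2.8 or under -1.5; controls are left without a call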", "note": "Here is one part, drawn at random, of about 18,000 reagents tested. About 2,900 of all reagents (16%) count as active. 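Calls are made per well; low scores hint the gene aids the LPS response, high scores that it dampens it.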 Repeated entries: four replicate wells of each siRNA pool."}
The first 4 records as a preview:
{"target gene": "EIF2S3", "TNF reporter robust z-score": -1.22, "outcome": "inactive"}
{"target gene": "EIF2S3", "TNF reporter robust z-score": -1.02, "outcome": "inactive"}
{"target gene": "EIF2S3", "TNF reporter robust z-score": -0.96, "outcome": "inactive"}
{"target gene": "EIF2S3", "TNF reporter robust z-score": -0.62, "outcome": "inactive"}

Results, from the start:
{"target gene": "EIF2S3", "TNF reporter robust z-score": -1.22, "outcome": "inactive"}
{"target gene": "EIF2S3", "TNF reporter robust z-score": -1.02, "outcome": "inactive"}
{"target gene": "EIF2S3", "TNF reporter robust z-score": -0.96, "outcome": "inactive"}
{"target gene": "EIF2S3", "TNF reporter robust z-score": -0.62, "outcome": "inactive"}
{"target gene": "NMUR2", "TNF reporter robust z-score": -1.29, "outcome": "inactive"}
{"target gene": "NMUR2", "TNF reporter robust z-score": -0.93, "outcome": "inactive"}
{"target gene": "NMUR2", "TNF reporter robust z-score": -0.79, "outcome": "inactive"}
{"target gene": "NMUR2", "TNF reporter robust z-score": 1.71, "outcome": "inactive"}
{"target gene": "HAPLN4", "TNF reporter robust z-score": -1.25, "outcome": "inactive"}
{"target gene": "HAPLN4", "TNF reporter robust z-score": -1.03, "outcome": "inactive"}
{"target gene": "HAPLN4", "TNF reporter robust z-score": -1.06, "outcome": "inactive"}
{"target gene": "HAPLN4", "TNF reporter robust z-score": -1.29, "outcome": "inactive"}
{"target gene": "SULT1C3", "TNF reporter robust z-score": -0.04, "outcome": "inactive"}
{"target gene": "SULT1C3", "TNF reporter robust z-score": 0.89, "outcome": "inactive"}
{"target gene": "SULT1C3", "TNF reporter robust z-score": 0.91, "outcome": "inactive"}
{"target gene": "SULT1C3", "TNF reporter robust z-score": 1.06, "outcome": "inactive"}
{"target gene": "NHLH1", "TNF reporter robust z-score": -0.65, "outcome": "inactive"}
{"target gene": "NHLH1", "TNF reporter robust z-score": 1.64, "outcome": "inactive"}
{"target gene": "NHLH1", "TNF reporter robust z-score": 0.41, "outcome": "inactive"}
{"target gene": "NHLH1", "TNF reporter robust z-score": 0.95, "outcome": "inactive"}
{"target gene": "CCT4", "TNF reporter robust z-score": -0.79, "outcome": "inactive"}
{"target gene": "CCT4", "TNF reporter robust z-score": -0.47, "outcome": "inactive"}
{"target gene": "CCT4", "TNF reporter robust z-score": -0.24, "outcome": "inactive"}
{"target gene": "CCT4", "TNF reporter robust z-score": 0.53, "outcome": "inactive"}
{"target gene": "PRMT7", "TNF reporter robust z-score": 0.5, "outcome": "inactive"}
{"target gene": "PRMT7", "TNF reporter robust z-score": 0.61, "outcome": "inactive"}
{"target gene": "PRMT7", "TNF reporter robust z-score": 0.89, "outcome": "inactive"}
{"target gene": "PRMT7", "TNF reporter robust z-score": 1.4, "outcome": "inactive"}
{"target gene": "PITPNA", "TNF reporter robust z-score": -0.46, "outcome": "inactive"}
{"target gene": "PITPNA", "TNF reporter robust z-score": 0.28, "outcome": "inactive"}
{"target gene": "PITPNA", "TNF reporter robust z-score": 0.86, "outcome": "inactive"}
{"target gene": "PITPNA", "TNF reporter robust z-score": 0.04, "outcome": "inactive"}
